Source: PMC6923878
No constants are given. Whether binding was seen depends on the method and setting. Binding seen in cells or lysates may run through a third protein. Some entries that bind do so weakly or less than the wild type.

The chains behind the UniProt entries cited, without tags or fusion partners. Where a name states a change or a piece, a line headed by the entry shows the natural chain unless it says otherwise. A line that says so, or that is headed by a name, gives the form on record, which may keep a tag or linker. Residues count along the entry.
UniProt Q13263: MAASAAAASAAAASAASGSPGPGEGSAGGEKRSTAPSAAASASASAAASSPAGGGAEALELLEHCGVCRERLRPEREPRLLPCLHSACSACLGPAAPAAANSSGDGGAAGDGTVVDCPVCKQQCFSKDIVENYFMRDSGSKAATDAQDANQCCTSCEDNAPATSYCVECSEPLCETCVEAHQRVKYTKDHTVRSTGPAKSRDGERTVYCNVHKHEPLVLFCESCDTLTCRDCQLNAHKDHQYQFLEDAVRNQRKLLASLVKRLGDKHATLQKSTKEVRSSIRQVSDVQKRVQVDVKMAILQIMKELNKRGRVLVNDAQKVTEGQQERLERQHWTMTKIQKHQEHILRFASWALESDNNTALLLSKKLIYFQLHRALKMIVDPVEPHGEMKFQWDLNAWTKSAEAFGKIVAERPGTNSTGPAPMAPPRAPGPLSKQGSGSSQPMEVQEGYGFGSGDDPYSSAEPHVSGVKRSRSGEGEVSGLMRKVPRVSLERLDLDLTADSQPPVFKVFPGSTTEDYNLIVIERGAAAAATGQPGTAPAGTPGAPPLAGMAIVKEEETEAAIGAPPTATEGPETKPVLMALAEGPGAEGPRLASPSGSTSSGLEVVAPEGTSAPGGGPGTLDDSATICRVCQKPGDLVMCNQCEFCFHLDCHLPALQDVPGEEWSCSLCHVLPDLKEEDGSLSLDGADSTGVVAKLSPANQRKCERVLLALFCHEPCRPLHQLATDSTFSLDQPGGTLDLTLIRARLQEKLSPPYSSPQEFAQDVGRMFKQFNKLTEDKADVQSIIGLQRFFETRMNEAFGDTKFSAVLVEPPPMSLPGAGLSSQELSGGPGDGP
UniProt Q6NUN9, residues 1-108: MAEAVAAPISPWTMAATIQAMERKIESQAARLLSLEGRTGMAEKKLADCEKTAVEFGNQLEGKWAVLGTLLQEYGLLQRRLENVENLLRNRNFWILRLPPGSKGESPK
GST-ZNF746b/1–188 (A0A2R8YDQ5, form named): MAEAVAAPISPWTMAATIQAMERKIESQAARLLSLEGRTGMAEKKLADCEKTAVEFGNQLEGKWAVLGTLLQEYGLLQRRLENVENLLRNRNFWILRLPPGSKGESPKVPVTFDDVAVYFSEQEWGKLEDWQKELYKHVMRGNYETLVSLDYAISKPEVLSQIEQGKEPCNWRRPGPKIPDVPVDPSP
GST-ZNF746b/109–188 (A0A2R8YDQ5, form named): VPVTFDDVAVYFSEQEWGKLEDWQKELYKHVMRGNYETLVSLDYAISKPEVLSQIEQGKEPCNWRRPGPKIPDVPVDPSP
GST-ZNF746b/109–188 G142E (A0A2R8YDQ5, form named): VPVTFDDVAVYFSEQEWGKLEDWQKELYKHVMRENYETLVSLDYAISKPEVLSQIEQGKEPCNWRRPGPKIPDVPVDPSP
GST-ZNF746b/109–188 R141L (A0A2R8YDQ5, form named): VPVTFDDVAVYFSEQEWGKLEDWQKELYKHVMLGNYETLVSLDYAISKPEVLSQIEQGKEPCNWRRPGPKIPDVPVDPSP
GST-ZNF746b/109–188 RG141,142LE (A0A2R8YDQ5, form named): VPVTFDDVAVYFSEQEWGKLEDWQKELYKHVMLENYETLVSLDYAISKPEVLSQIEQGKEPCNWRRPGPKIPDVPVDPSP
GST-ZNF746b/109–294 (A0A2R8YDQ5, form named): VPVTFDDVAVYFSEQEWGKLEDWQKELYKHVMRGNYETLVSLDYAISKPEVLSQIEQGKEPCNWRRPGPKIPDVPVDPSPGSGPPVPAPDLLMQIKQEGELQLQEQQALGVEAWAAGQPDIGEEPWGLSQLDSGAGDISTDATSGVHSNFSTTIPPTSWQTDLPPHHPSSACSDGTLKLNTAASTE

Key:
[1] = biological target: TRIM28 (endogenous) (human (endogenous in HeLa)) (UniProt Q13263); test: co-IP; HeLa cells transiently expressing GST fusions; endogenous TRIM28 as bait, precipitated with mAb 1Tb1A9 on protein G Mag-Sepharose; TST buffer, overnight at 4 °C; Western blot with anti-TRIM28 and anti-GST
[2] = biological target: ZNF746a/1–108 (GST- or His-tagged, from E. coli) (human) (UniProt Q6NUN9); test: pull-down; crude E. coli extracts with recombinant His-tagged and GST- or MBP-fusion proteins mixed in vitro; Ni-NTA magnetic beads pull down the His-tagged protein; 50 mM TRIS/HCl pH 8, 300 mM NaCl, 20 mM imidazole, 0.05% Tween20, overnight at 4 °C
[3] = biological target: ZNF746a/1–108 (OST- or GST-tagged, in HeLa) (human) (UniProt Q6NUN9); test: pull-down; HeLa cells co-transfected with GST-fusion and OST-fusion constructs; Strep-Tactin pull-down via the OST-tagged protein; blots with anti-GST and anti-OST

| binding [1] | Substance | other results |
| --- | --- | --- |
| binds | GST-ZNF746b/1–188 (from UniProt A0A2R8YDQ5 1-188) (domain or fragment) | – |
| binds weakly | GST-ZNF746b/109–188 (from UniProt A0A2R8YDQ5 109-188) (domain or fragment) | – |
| binds | GST-ZNF746b/109–188 G142E (from UniProt A0A2R8YDQ5 109-188) (domain or fragment) | – |
| binds weakly | GST-ZNF746b/109–188 R141L (from UniProt A0A2R8YDQ5 109-188) (domain or fragment) | – |
| binds | GST-ZNF746b/109–188 RG141,142LE (from UniProt A0A2R8YDQ5 109-188) (domain or fragment) | – |
| binds | GST-ZNF746b/109–294 (from UniProt A0A2R8YDQ5 109-294) (domain or fragment) | – |
| – | ZNF746a/1–108 (GST- or His-tagged, from E. coli) (from UniProt Q6NUN9 1-108) (domain or fragment) | binding [2]: binds |
| – | ZNF746a/1–108 (OST- or GST-tagged, in HeLa) (from UniProt Q6NUN9 1-108) (domain or fragment) | binding [3]: binds |
